From PubChem BioAssay AID651900 (Broad Institute, 2012)
This is one part of the list. Further columns of the screen follow, without active or inactive calls.

Experiment: NIH3T3 cell viability loss – plate reader, cherry-pick, two tests, cytotoxicity control, dose response (AID 651900)
Details: test 2 concentration series, at 26 µM

Compound | activity [%]
O=C(CSc1nc2cc(C(=O)O)ccc2c(=O)n1-c1ccc(F)cc1)Nc1ccc(F)c(F)c1F | -12.1
NC(=O)c1ccc(Oc2cccc3cccnc23)c([N+](=O)[O-])c1 | 6.68
CC(=O)c1ccc(N2CCN(C(=O)c3ccc4c(c3)OCO4)CC2)cc1 | -4.43
O=C(COc1ccc2ccc(=O)oc2c1)N1CCN(c2ccc(F)cc2)CC1 | -7.76
CC(=O)c1ccc(C(=O)N2CCCC(Nc3ccc(C(C)C)cc3)C2)s1 (configuration not stated) | 6.57
CCN(CC)c1ccc2cc(C(=O)c3cccs3)c(=O)oc2c1 | -9.03
COc1cc(-c2nc3ccccc3nc2-c2ccc(O)c(OC)c2)ccc1O | 2.04
COc1ccc(C(=O)C2CCCN(C(=O)c3ccc(C(C)=O)s3)C2)c(C)c1 (configuration not stated) | -7.65
O=C(Nc1ccc(N2CCOCC2)c(Cl)c1)c1cccnc1 | -6.09
COc1cc2c(cc1NC(=O)c1cccnc1)CCCC2 | -8.06
CC(=O)c1ccc(C(=O)N2CCCC(Nc3ccccc3)C2)s1 (configuration not stated) | -0.636
CCOC(=O)C1CCN(C(=O)Nc2ccc3snnc3c2)CC1 | 4.49
O=C(Nc1cccnc1)c1ccc(Cl)c(Cl)c1 | 1.54
O=C(Nc1ncc2c(n1)CC(c1ccco1)CC2=O)c1ccccc1 (configuration not stated) | -7.21
CC(=O)c1ccc(C(=O)NC2CCCN(Cc3ccccc3F)C2)s1 (configuration not stated) | 4.56
O=C(Nc1ccc2snnc2c1)N1CCOCC1 | 0.943
CC(=O)OCC(=O)[C@@]1(OC(C)=O)[C@@H](C)C[C@H]2[C@@H]3C[C@H](F)C4=CC(=O)C=C[C@]4(C)[C@@]3(F)[C@@H](O)C[C@@]21C | 6.27

Rewritten with tabs: 2 of the compounds above.
Compound	activity [%]
O=C(Nc1ccc2snnc2c1)N1CCOCC1	0.943
CC(=O)OCC(=O)[C@@]1(OC(C)=O)[C@@H](C)C[C@H]2[C@@H]3C[C@H](F)C4=CC(=O)C=C[C@]4(C)[C@@]3(F)[C@@H](O)C[C@@]21C	6.27
